# The other results are listed elsewhere or left out. Further columns of the screen follow, without active or inactive calls. Most of these compounds were active or inconclusive in the main read-out, so they are no random draw. The note in brackets gives the kind of curve behind each potency; many fits are weak.
# Test: qHTS Assay for Lipid Storage Modulators in Drosophila S3 Cells;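 as to cell number change: cells counted by Cell Tracker Red CMTPX staining in the red channel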
# Conditions: BODIPY lipid droplet fluorescence, 18-24 h; for cell number change: measured here: cell count max response, cells fed with added oleic acid
# Procedure, shortened: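 Drosophila S3 cells got compounds at several concentrations plus oleic acid (400 uM solution). Laser-scanning cytometry with 488 nm excitation read lipid droplets at 500-530 nm and cells at 575-640 nm. Percent activity was relative to 20 uM Triacsin C.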
# [1] = measured here: lipid fluorescence (Fed channel) AC50, cells fed with added oleic acid
# [2] = measured here: cell number channel AC50, cells fed with added oleic acid
smiles,measurement,setting,value
Cc1[nH]n(-c2cccc3ccccc23)c(=O)c1/C=N/c1sc2c(c1C#N)CCC2,cell number change,,-10.6%
same,AC50,[1],"0.58 µM [rising, single point]"
Cc1ccc(S(=O)(=O)CCC(=O)c2ccc(O)cc2O)cc1,cell number change,,6.08%
Cc1ccccc1NC(=S)N(CCN1CCCCCC1)Cc1cccs1,cell number change,,50.2%
same,AC50,[2],"10.3 µM [rising, partial curve, poor fit]"
S=C(NC1CC1)N1CCN(C(=S)NC2CC2)CC1,cell number change,,36.8%
same,AC50,[2],"32.6 µM [rising, partial curve, poor fit]"
same,AC50,[1],"29.1 µM [rising, single point]"
O=C(OC1CCCCC1=O)c1cc(Cl)ccc1[N+](=O)[O-] (configuration not stated),cell number change,,-111%
same,AC50,[2],"23.1 µM [falling, partial curve]"
same,AC50,[1],"0.259 µM [falling, partial curve]"
CC(=O)c1c(C)[nH]c(C(=O)COc2ccc3c(C)cc(=O)oc3c2)c1C,cell number change,,-16.8%
same,AC50,[1],"1.84 µM [falling, partial curve]"
COC(=O)c1ccc2c(=O)n(-c3ccccc3)c(SCN3C(=O)c4ccccc4C3=O)nc2c1,cell number change,,-4.87%
CCC(c1nnnn1C(C)(C)CC)N(CCN1CCOCC1)Cc1cc2cc(C)ccc2[nH]c1=O (configuration not stated),cell number change,,2.95%
same,AC50,[2],"0.00461 µM [rising, full curve, poor fit]"
same,AC50,[1],"0.411 µM [rising, full curve, poor fit]"
O=C(Nc1sc2c(c1C(=O)NC1CCCCC1)CCC2)c1ccco1,AC50,[2],"0.411 µM [rising, single point]"
same,AC50,[1],"0.146 µM [rising, full curve, poor fit]"
O=C(O)CCCCCN1C(=O)C(O)=C(C(=O)/C=C/c2ccccc2)C1c1cccc([N+](=O)[O-])c1 (configuration not stated),cell number change,,3.5%
CC(C)[C@H](NC(=O)c1ccccc1)C(=O)OCC(=O)N1CCCCCC1,cell number change,,-70.9%
same,AC50,[2],"29.1 µM [falling, single point]"
same,AC50,[1],"4.61 µM [falling, partial curve]"
COC(=O)c1ccc(NC(=O)C2CCCN2C(=O)OCc2ccccc2)cc1 (configuration not stated),cell number change,,40.6%
same,AC50,[2],"23.1 µM [rising, single point]"
COc1ccc(CC(=O)NNC(=O)CSc2nc(C)c(C)c(=O)[nH]2)cc1,cell number change,,33.7%
O=[N+]([O-])c1ccc(/C=N/Nc2nc(-c3ccccc3)c3cc(Br)ccc3n2)o1,AC50,[2],"0.231 µM [rising, full curve, poor fit]"
Cc1cc(C(=O)NCCCn2ccnc2)cs1,cell number change,,15.4%
same,AC50,[1],"16.4 µM [rising, single point]"
COc1ccccc1OC(=O)CCN1c2ccccc2Sc2ccccc21,cell number change,,11.3%
same,AC50,[1],"6.51 µM [rising, partial curve]"
CC(C)Oc1ccc(CCc2nnc(SCC(=O)O)n2-c2ccccc2)cc1,cell number change,,-51.9%
O=C(Nc1ccccn1)C1CCCN(c2ncnc3c2nc2n3CCCCC2)C1 (configuration not stated),cell number change,,-26.7%
same,AC50,[2],"2.91 µM [falling, full curve, poor fit]"
same,AC50,[1],"1.84 µM [falling, partial curve]"
CC(=O)Nc1ccc(OCC(O)CN2CCN(S(=O)(=O)c3ccc(NC(C)=O)cc3)CC2)cc1 (configuration not stated),cell number change,,-15.1%
same,AC50,[2],"0.082 µM [falling, full curve, poor fit]"
same,AC50,[1],"0.411 µM [falling, full curve]"
CCC(=O)c1ccc(OCCn2cnc3ccccc32)cc1,cell number change,,77.2%
same,AC50,[2],"20.6 µM [rising, single point]"
same,AC50,[1],"0.103 µM [rising, full curve, poor fit]"
COCCN(C(=O)CSc1nnc(C)n1Cc1ccccc1)c1c(N)n(CC(C)C)c(=O)[nH]c1=O,cell number change,,-47.1%
same,AC50,[2],"32.6 µM [falling, single point]"
same,AC50,[1],"25.9 µM [falling, single point]"
CCC1(c2ccccc2)C(=O)NCNC1=O,AC50,[1],"29.1 µM [falling, single point]"
COc1ccc(C(C)=O)c(Oc2nc(CN3CCOCC3)nc3scc(-c4cccs4)c23)c1,cell number change,,0.132%
COc1ccc(-c2cc(-c3nnc(COC(=O)c4ccncc4)o3)c3ccccc3n2)cc1OC,cell number change,,3.63%
same,AC50,[1],"1.64 µM [rising, partial curve, poor fit]"
Nc1nnc(SCC(=O)OCC(=O)c2ccccc2Br)s1,cell number change,,-4.08%
CC(NCc1ccccc1O)c1ccccc1 (configuration not stated),cell number change,,-106%
same,AC50,[2],"25.9 µM [falling, partial curve]"
same,AC50,[1],"29.1 µM [falling, partial curve]"
C/C(=N/N=C/c1ccc(N(C)C)cc1)c1ccccc1,AC50,[1],"0.092 µM [rising, full curve, poor fit]"
CCOC(=O)c1cc(-c2ccccc2)nc2nc(N(CC)CC)sc12,cell number change,,-25.7%
same,AC50,[1],"6.51 µM [rising, single point]"
O=[N+]([O-])c1ccc2c(c1)C(N1CCOCC1)/C(=C/COc1ccc3ccccc3c1Br)O2 (configuration not stated),AC50,[2],"1.46 µM [rising, partial curve]"
same,AC50,[1],"29.1 µM [rising, single point]"
COc1cccc(/C=C/C(=O)c2ccc3c(c2)OCCO3)c1OC,cell number change,,-3.65%
same,AC50,[1],"29.1 µM [falling, single point]"
COc1ccc(CNC(=O)COC(=O)CCCOc2ccc(Cl)cc2Cl)cc1OC,AC50,[2],"6.51 µM [rising, single point]"
Cc1cc(C)cc(NC(=O)CN2CCC(NC(=O)c3cccc(F)c3)CC2)c1,cell number change,,57.7%
same,AC50,[2],"16.4 µM [rising, single point]"
CN1CCN(C(=O)c2sc(=S)n(-c3ccccc3)c2N)CC1,cell number change,,-89.3%
same,AC50,[2],"20.6 µM [falling, partial curve]"
same,AC50,[1],"3.26 µM [falling, full curve]"
CC(CNC(=O)c1ccccc1Cl)c1ccccc1 (configuration not stated),cell number change,,-30.6%
same,AC50,[2],"0.00411 µM [falling, full curve, poor fit]"
same,AC50,[1],"23.1 µM [falling, partial curve, poor fit]"
CCN(CC)S(=O)(=O)c1ccc(C)c(N=C=S)c1,cell number change,,11.5%
same,AC50,[1],"4.11 µM [rising, partial curve, poor fit]"
COCc1c(C(=O)N/N=C\c2ccccn2)nnn1-c1nonc1N,cell number change,,-0.435%
same,AC50,[1],"2.91 µM [rising, single point]"

# Part of the list above in another layout:
smiles	measurement	setting	value
CCC(=O)c1ccc(OCCn2cnc3ccccc32)cc1	AC50	[1]	0.103 µM [rising, full curve, poor fit]
COCCN(C(=O)CSc1nnc(C)n1Cc1ccccc1)c1c(N)n(CC(C)C)c(=O)[nH]c1=O	cell number change		-47.1%
same	AC50	[2]	32.6 µM [falling, single point]
same	AC50	[1]	25.9 µM [falling, single point]
CCC1(c2ccccc2)C(=O)NCNC1=O	AC50	[1]	29.1 µM [falling, single point]
COc1ccc(C(C)=O)c(Oc2nc(CN3CCOCC3)nc3scc(-c4cccs4)c23)c1	cell number change		0.132%
COc1ccc(-c2cc(-c3nnc(COC(=O)c4ccncc4)o3)c3ccccc3n2)cc1OC	cell number change		3.63%
same	AC50	[1]	1.64 µM [rising, partial curve, poor fit]
Nc1nnc(SCC(=O)OCC(=O)c2ccccc2Br)s1	cell number change		-4.08%
CC(NCc1ccccc1O)c1ccccc1 (configuration not stated)	cell number change		-106%
same	AC50	[2]	25.9 µM [falling, partial curve]
same	AC50	[1]	29.1 µM [falling, partial curve]
C/C(=N/N=C/c1ccc(N(C)C)cc1)c1ccccc1	AC50	[1]	0.092 µM [rising, full curve, poor fit]
CCOC(=O)c1cc(-c2ccccc2)nc2nc(N(CC)CC)sc12	cell number change		-25.7%
same	AC50	[1]	6.51 µM [rising, single point]
O=[N+]([O-])c1ccc2c(c1)C(N1CCOCC1)/C(=C/COc1ccc3ccccc3c1Br)O2 (configuration not stated)	AC50	[2]	1.46 µM [rising, partial curve]
same	AC50	[1]	29.1 µM [rising, single point]

# Source: PubChem BioAssay AID2685 (National Center for Advancing Translational Sciences (NCATS), 2010)
